Here are results for one compound from publication PMC3541164, “Cytotoxic and potent CYP1 inhibitors from the marine algae Cymopolia barbata” (Organic and Medicinal Chemistry Letters, 2012).

The assay relates to MCF-7 cells. In words: MTS cell viability assay, breast cancer cells. Conditions: Homo sapiens, MCF7, 24 h exposure. In kind it is cell-based. As for the experimental part:
Cell lines (CCD18 Co, HepG2 and MCF-7) were maintained in ATCC-formulated Eagle’s Minimum Essential Medium and HT29 was maintained in McCoy’s 5a Modified Medium supplemented with 10% fotal bovine serum (Atlas; Fort Collins, CO, USA), 10 mM HEPES solution, 100 mM L-glutamine penicillin streptomycin solution, 3 g/L glucose, and 1.5 g/L of sodium bicarbonate. Cells were maintained at 37°C with 5% CO2 in Corning 75 cm^2 culture flasks. Cells were exposed to a given isolate or known anticancer agent for 24 h. Following the appropriate treatments, cell viability was evaluated using an MTS assay according to the manufacturer’s instructions. All assays were performed at least three times and were monitored spectrophotometrically at 590 nm. Cell viability was recorded as percentage relative to vehicle solvent-treated control.
(Tetrazolium assays rely on reduction of a dye to a coloured formazan, in cell work by metabolically active cells.)

Broadly, the IC50 is the concentration that gives 50% inhibition. A higher IC50 goes with lower potency. Turning to `CC/C(=C(\c1ccccc1)c1ccc(OCCN(C)C)cc1)c1ccccc1` [Tamoxifen, tamoxifen, reference compound], the IC50 amounted to 17.28 ± 0.06 µM.
